Our source for the binding values is paper PMC12591119.

Chains of the proteins cited; added tags and fusions are not shown.
UniProt Q9BYT3: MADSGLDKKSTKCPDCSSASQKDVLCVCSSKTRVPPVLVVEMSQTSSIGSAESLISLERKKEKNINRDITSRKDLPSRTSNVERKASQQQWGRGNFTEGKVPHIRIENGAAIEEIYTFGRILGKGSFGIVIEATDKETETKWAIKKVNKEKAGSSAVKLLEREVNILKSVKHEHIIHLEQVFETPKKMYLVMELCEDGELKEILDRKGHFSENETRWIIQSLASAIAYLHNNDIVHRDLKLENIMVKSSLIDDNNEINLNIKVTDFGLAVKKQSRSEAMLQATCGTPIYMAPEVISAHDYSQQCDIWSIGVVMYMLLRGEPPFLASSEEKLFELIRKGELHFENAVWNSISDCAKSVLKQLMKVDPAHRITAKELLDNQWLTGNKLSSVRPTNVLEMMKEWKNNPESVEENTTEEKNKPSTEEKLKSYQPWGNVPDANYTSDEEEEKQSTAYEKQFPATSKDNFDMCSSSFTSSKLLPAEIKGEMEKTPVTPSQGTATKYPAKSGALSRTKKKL

This assay concerns the target Flag-tagged STK33 immunoprecipitated from MDA-MB-231 cells (UniProt Q9BYT3). The assay is described as follows: affinity purification with mass spectrometry; proteins immunoprecipitated by anti-Flag antibody from MDA-MB-231 cells, analysed by mass spectrometry.

These are yes or no findings as the source states them, for the method shown. In cells and extracts the contact can be indirect. A yes stands for co-enrichment or nearness to the bait. Other partners may have been found.

B1: cell division cycle and apoptosis regulator protein 1 (CCAR1) (protein, UniProt Q8IX12 1-1150)
chain: MAQFGGQKNPPWATQFTATAVSQPAALGVQQPSLLGASPTIYTQQTALAAAGLTTQTPANYQLTQTAALQQQAAAAAAALQQQYSQPQQALYSVQQQLQQPQQTLLTQPAVALPTSLSLSTPQPTAQITVSYPTPRSSQQQTQPQKQRVFTGVVTKLHDTFGFVDEDVFFQLSAVKGKTPQVGDRVLVEATYNPNMPFKWNAQRIQTLPNQNQSQTQPLLKTPPAVLQPIAPQTTFGVQTQPQPQSLLQAQISAASITPLLQTQPQPLLQQPQQKAGLLQPPVRIVSQPQPARRLDPPSRFSGRNDRGDQVPNRKDDRSRERERERRRSRERSPQRKRSRERSPRRERERSPRRVRRVVPRYTVQFSKFSLDCPSCDMMELRRRYQNLYIPSDFFDAQFTWVDAFPLSRPFQLGNYCNFYVMHREVESLEKNMAILDPPDADHLYSAKVMLMASPSMEDLYHKSCALAEDPQELRDGFQHPARLVKFLVGMKGKDEAMAIGGHWSPSLDGPDPEKDPSVLIKTAIRCCKALTGIDLSVCTQWYRFAEIRYHRPEETHKGRTVPAHVETVVLFFPDVWHCLPTRSEWETLSRGYKQQLVEKLQGERKEADGEQDEEEKDDGEAKEISTPTHWSKLDPKTMKVNDLRKELESRALSSKGLKSQLIARLTKQLKVEEQKEEQKELEKSEKEEDEDDDRKSEDDKEEEERKRQEEIERQRRERRYILPDEPAIIVHPNWAAKSGKFDCSIMSLSVLLDYRLEDNKEHSFEVSLFAELFNEMLQRDFGVRIYKSLLSLPEKEDKKEKDKKSKKDERKDKKEERDDETDEPKPKRRKSGDDKDKKEDRDERKKEDKRKDDSKDDDETEEDNNQDEYDPMEAEEAEDEEDDRDEEEMTKRDDKRDINRYCKERPSKDKEKEKTQMITINRDLLMAFVYFDQSHCGYLLEKDLEEILYTLGLHLSRAQVKKLLNKVVLRESCFYRKLTDTSKDEENHEESESLQEDMLGNRLLLPTPTVKQESKDVEENVGLIVYNGAMVDVGSLLQKLEKSEKVRAEVEQKLQLLEEKTDEDEKTILNLENSNKSLSGELREVKKDLSQLQENLKISENMNLQFENQMNKTIRNLSTVMDEIHTVLKKDNVKNEDKDQKSKENGASV
Consider B1, for which the binding entry is “binds”.
